Primary screen of a compound library

The values are deposited in ChEMBL (CHEMBL3988442, “University of Dundee, Small-Polar-MMV Screening Library” (2021)).

Results are given as percent effect. How 0% and 100% were set is not recorded. Most values in the screen are low, and negative values occur. Compounds were drawn at random from those tested, without regard to their results. Two or more numbers in one place are separate tests of the same structure; such repeats can differ widely.

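Viability assay of Plasmodium falciparum sporozoites; the read-out is not stated. The concentration is filed as 10 mM, unlikely as a test dose, so the dose is not known. The record gives no direction; compounds that gave an IC50 in retests scored well above the rest, so higher reads as lower viability. Strong results were mostly tested again. About 34,000 compounds were tested under these conditions; 0.84% (about 280) showed 50% or more at least once.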

* COc1ccc(OC)c(C(=O)N(C)Cc2ncc(C)c(OC)c2C)c1 | -19.62%
* O=C(C1CCCC1)N1CCC(c2ncc3c(n2)CCNC3)C1 (stereo not given) | 9.117%
* COCCN(C)CCN1CC2(CCN(C(=O)C3CCOC3)CC2)OC1=O (stereo not given) | 8.724%
* CC(C)N1CCCC1c1cc(CCO)[nH]n1 (stereo not given) | -2.184%
* NCCO[C@H]1C[C@@H](O)C12CCN(C(=O)CCOc1ccccc1)CC2 | 3.322% & 1.71%
* O=C(O)C(F)(F)F.O=C(O)C(F)(F)F.[H][C@@]12CCN(Cc3cccnc3)[C@]1([H])CC[C@H](COCC1CC1)O2 | -16.26%
* CO[C@@]1(C)C[C@@H](O)C12CCN(C(=O)c1ccccc1C(C)=O)CC2 | -13.69%
* Cc1ccc(CN2CCc3c(COCC4CC4)nn(C)c3C2)s1.O=C(O)C(F)(F)F | 5.565%
* Cc1c(C(=O)N2CC(=O)N(C)C2)nnn1-c1cccc2cccnc12 | 8.013%
* Cn1nccc1CN1CCOC(c2ccc(-c3cncnc3)cn2)C1 (stereo not given) | 3.529%
* CC[C@@H]1N(Cc2ccc(F)cc2)CCC[C@]12CCC(=O)N2C.O=C(O)C(F)(F)F | -0.1805%
* NC(=O)CCNC(=O)Cc1cccc(I)c1 | -13.71%
* C1CCCN(c2nc(C3CC3)ns2)CC1 | -28.52% & -5.313% & -26.8%
* [H][C@]12CN(Cc3ccco3)CCN1C[C@H](c1ccccc1)[C@H]2C(=O)NC | -39.51%
* O=C(O)C(F)(F)F.O=C(O)C(F)(F)F.O=C(O)C(F)(F)F.[H][C@@]12CN(Cc3nccs3)C[C@H](C(=O)Nc3cccnc3)[C@]1([H])CCO2 | -6.113%
* Cc1nc(C)n(CC2CN(Cc3ccccc3C#N)CCO2)n1 (stereo not given) | -0.4488%
* Cc1ccc(NC2CCN(C(=O)CCc3ccncc3)CC2)nn1 | 10.05%
* O=C(O)C(F)(F)F.O=C(O)C(F)(F)F.[H][C@@]12CCN(Cc3nccs3)C[C@]1([H])O[C@@H](C(=O)Nc1cccnc1C)C2 | 6.629%
* COCc1cn(C2CCN(Cc3ccc(Cl)s3)CC2)nn1 | -4.013%
* O=C(O)C(F)(F)F.[H][C@]12C[C@@H](CN(C)C)N(C(C)=O)[C@@]1([H])CCN(C(=O)c1cccn1C)C2 | 6.392%
* [H][C@@]12CN(CC3CCCC3)C[C@]1([H])OCCN2c1cnccn1 | 0.1751%
* CCN(C)CC1CCN(C(=O)Nc2ccc(C)cc2)C1 (stereo not given) | -9.455%
* CN1CCOCC2(CCCN(C(=O)Cc3ccncc3)C2)C1.O=C(O)C(F)(F)F (stereo not given) | -19.62%
* Cc1ccc(-n2c(SCC(=O)O)nnc2-c2ccccc2)cc1 | 16.34%
* CC(NCc1cnc(C2CCC2)s1)c1ccc(-n2cccn2)cc1 (stereo not given) | -2.176%
* COCC1CC2(CCN(C(=O)c3cc(C)oc3C)CC2)CN1C(C)C.O=C(O)C(F)(F)F (stereo not given) | -2.48%
* CN1CCc2nnc(C3CCCN3S(=O)(=O)c3ccc(F)cc3)n2CC1 (stereo not given) | 2.346%
* COCCN1CCN(Cc2cccc(C(=O)N(C)C)c2)CC1 | 6.441%
* CCN1CC2(CNCCN(C(=O)Nc3ccccc3)C2)CC1=O.O=C(O)C(F)(F)F (stereo not given) | 17.79%
* Cc1ncsc1-c1nnc(C2CCN(Cc3ccc(Cl)cc3)CC2)o1 | -4.184%
* CNC(=O)c1ccc2c(c1)C1(CCN(CCOC)CC1)C(=O)N2.O=C(O)C(F)(F)F | -0.2632%
* Cc1cc(NC(=O)c2nc(N3CCCC3)ncc2Cl)nc(C(C)C)n1 | 10.37%
* Cc1ccc2nc(C)cc(NCCNS(=O)(=O)c3cn(C)nc3C)c2c1 | 2.196%
* Cc1ccccc1-c1cc(C(=O)N2CCn3c(C)nnc3C2)[nH]n1 | 9.068%
* O=C(O)C(F)(F)F.OCCN1CCOC2(CCCN(c3cccc(F)c3)C2)C1 (stereo not given) | -4.96%
* O=C(O)C(F)(F)F.[H][C@]12CC[C@@]3(N=C(C)N(CC4CC4)C3=O)[C@@]1([H])CN(CCOC)C2 | -11.72%
* O=C(O)C(F)(F)F.O=C(O)C(F)(F)F.c1ccc(N2CCC3(COCCN(Cc4cccs4)C3)C2)nc1 (stereo not given) | 0.722%
* Cc1ccc(NC2CCN(C(=O)Cc3cccc(F)c3)CC2)nn1 | 6.72%
* Cc1nnsc1C(=O)N1CC(c2nc3ccccc3[nH]2)C1 | -0.4803% & -15.93%
* Fc1ccc(CNC2CCN(CCc3ccncc3)CC2)cc1F | -20.24%
* CC(=O)N1CCC[C@@H](NCc2cccc(F)c2)[C@@H]1c1ccc(C)s1.Cl | -14.3%
* Cc1nccn1CCCC(=O)N1CCC(Nc2cccnn2)CC1 | 9.12%
* CC(C)C(=O)N1CCN(Cc2cc(-c3ccncc3)nn2C)CC1 | -7.938%
* COc1cc2cc(C(=O)N[C@@H](C)C(=O)O)n(C)c2c(OC)c1OC | 6.798%
* CC(=O)NC1CCCN(C(=O)NCc2cccnc2N(C)C)C1 (stereo not given) | -28.43%
* Cc1cnn(CC2CN(Cc3ccccn3)CCO2)c1 (stereo not given) | -1.077%
* CN(C)C(=O)CN1CCCC1c1cccc(Cc2ccccc2F)n1 (stereo not given) | 7.195%
* CN(Cc1noc(C2CC2)n1)C1CCN(CCc2cccs2)C1 (stereo not given) | 2.903%
* COCC(=O)N[C@H](C(=O)NC(C)c1cc(C)ccc1C)C(C)C (stereo not given in full) | 3.905%
* COc1ccc(N2CCN(C(=O)OC(C)(C)C)C(C(=O)O)C2)cc1 (stereo not given) | -4.604%
* COc1ccc(C2=CCN(C(=O)C3CC(=O)N(C4CC4)C3)CC2)cc1 (stereo not given) | -8.068%
* O=C(CN1CCCCC1C1OCCO1)Nc1ccc(F)c(F)c1 (stereo not given) | -13.08%
* Cc1cnn(C2CCCN(C(=O)c3cn4cccnc4n3)C2)c1 (stereo not given) | 5.44%
* Cl.OC[C@H]1CC[C@]2(CC1)CN(Cc1ccccn1)Cc1ccccc1O2 | -2.251%

For reference, 4 entries once more:

{"structure": "Cc1cnn(C2CCCN(C(=O)c3cn4cccnc4n3)C2)c1", "stereo": "stereo not given", "percent effect": 5.44}
{"structure": "NCCO[C@H]1C[C@@H](O)C12CCN(C(=O)CCOc1ccccc1)CC2", "percent effect": "3.322 & 1.71"}
{"structure": "Cc1cc(NC(=O)c2nc(N3CCCC3)ncc2Cl)nc(C(C)C)n1", "percent effect": 10.37}
{"structure": "Cc1ccc2nc(C)cc(NCCNS(=O)(=O)c3cn(C)nc3C)c2c1", "percent effect": 2.196}